Data source: PubChem BioAssay AID1224829 (NIAID, 2016)

Aim: 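Genes needed for LPS-driven NF-kappaB p65 nuclear entry in mouse macrophages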 (follow-up of hits)
Cell system: mouse RAW264.7 G9 macrophage reporter cells
Reagents: single siRNA against mouse genes, 100 nM
Time to read-out: 2 days of siRNA knock-down, then 40 min of LPS before fixing
Treatment: LPS (Salmonella minnesota R595) at 10 ng/ml
Measured: 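High-content images after 40 min LPS exposure; GFP-p65 nucleus to surrounding ring signal ratio, normalised to plate median and non-targeting control wells, expressed as z-score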
Scale: p65 translocation z-score: higher = more nuclear NF-kappaB p65 after LPS
Rule for the call: 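Active means the replicate-mean z-score lies beyond plus or minus 2, in either direction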
Meaning of the calls: active = changed p65 translocation (either direction); inactive = no clear change
Shown is a random part of about 3,800 deposited reagents. 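Calls cover raised and lowered translocation; gene median uses one vendor's three siRNAs; qiagen siRNAs acted more weakly than ambion siRNAs.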 Unmarked entries are inactive. The numbers tell different reagents against one gene apart. Not all columns of the deposit are shown.

gene knocked down | reagent | siRNA vendor or control pool | p65 translocation z-score, replicate mean | p65 translocation z-score, replicate 1
Atf3 | 1 | ambion single siRNA | -4.41 (active) | -4.88
Atf3 | 2 | ambion single siRNA | -1.58 | -1.78
Atf3 | 3 | ambion single siRNA | -3.72 (active) | -4.23
Atf3 | 4 | qiagen single siRNA | 1.54 | 0.72
Atf3 | 5 | qiagen single siRNA | 2.59 (active) | 1.98
Atf3 | 6 | qiagen single siRNA | -0.782 | 0.299
S1pr1 | 1 | ambion single siRNA | -1.17 | -0.678
S1pr1 | 2 | ambion single siRNA | -3.72 (active) | -3.76
S1pr1 | 3 | ambion single siRNA | -0.295 | -0.295
S1pr1 | 4 | qiagen single siRNA | -2.3 (active) | -1.21
S1pr1 | 5 | qiagen single siRNA | 0.483 | 0.483
S1pr1 | 6 | qiagen single siRNA | -3.4 (active) | -2.76
Zfp428 | 1 | ambion single siRNA | -0.756 | -1.26
Zfp428 | 2 | ambion single siRNA | -3.15 (active) | -3.8
Zfp428 | 3 | ambion single siRNA | -3.97 (active) | -4.12
Zfp428 | 4 | qiagen single siRNA | 2.07 (active) | 0.894
Zfp428 | 5 | qiagen single siRNA | -1.2 | -1.26
Zfp428 | 6 | qiagen single siRNA | 1.08 | 0.586
H2-K1 | 1 | ambion single siRNA | 0.186 | 0.186
H2-K1 | 2 | ambion single siRNA | -0.709 | -1.27
H2-K1 | 3 | ambion single siRNA | -11.5 (active) | -13.1
H2-K1 | 4 | qiagen single siRNA | -0.0187 | -1.24
H2-K1 | 5 | qiagen single siRNA | -1.19 | -1.61
H2-K1 | 6 | qiagen single siRNA | -2.19 (active) | -1.34

6 entries already listed, ordered by “p65 translocation z-score, replicate mean”, descending.
gene knocked down | reagent | siRNA vendor or control pool | p65 translocation z-score, replicate mean | p65 translocation z-score, replicate 1
S1pr1 | 5 | qiagen single siRNA | 0.483 | 0.483
S1pr1 | 3 | ambion single siRNA | -0.295 | -0.295
Atf3 | 6 | qiagen single siRNA | -0.782 | 0.299
S1pr1 | 1 | ambion single siRNA | -1.17 | -0.678
S1pr1 | 4 | qiagen single siRNA | -2.3 (active) | -1.21
S1pr1 | 2 | ambion single siRNA | -3.72 (active) | -3.76

More records follow:
gene knocked down | reagent | siRNA vendor or control pool | p65 translocation z-score, replicate mean | p65 translocation z-score, replicate 1
Thrap3 | 1 | ambion single siRNA | -1.33 | -3.43
Thrap3 | 2 | ambion single siRNA | -1.76 | 0.11
Thrap3 | 3 | ambion single siRNA | -0.657 | -1.69
Thrap3 | 4 | qiagen single siRNA | 2.75 (active) | 1.94
Thrap3 | 5 | qiagen single siRNA | 0.207 | 0.76
Thrap3 | 6 | qiagen single siRNA | -0.396 | -1.35
Aqp3 | 1 | ambion single siRNA | -0.0954 | 0.47
Aqp3 | 2 | ambion single siRNA | -1.55 | -1.55
Aqp3 | 3 | ambion single siRNA | -6.33 (active) | -8.01
Aqp3 | 4 | qiagen single siRNA | 1.28 | 0.549
Aqp3 | 5 | qiagen single siRNA | -1.37 | -1.01
Aqp3 | 6 | qiagen single siRNA | -3.03 (active) | -1.84
Mrpl51 | 1 | ambion single siRNA | 0.228 | 0.541
Mrpl51 | 2 | ambion single siRNA | -0.0428 | 1.4
Mrpl51 | 3 | ambion single siRNA | -1.43 | -1.32
Mrpl51 | 4 | qiagen single siRNA | 1.04 | 1.82
Mrpl51 | 5 | qiagen single siRNA | -0.273 | -0.181
Mrpl51 | 6 | qiagen single siRNA | 3.41 (active) | 1.9
